Binding signal data for 42 sequences are collected here from publication PMC7819943, “Rice protein-binding microarrays: a tool to detect cis-acting elements near promoter regions in rice”.

The other results are listed elsewhere or left out.

In the assay the target is T1, OsSMF1 (Oryza sativa, UniProt Q6ZLB0 1-436).
T1 sequence: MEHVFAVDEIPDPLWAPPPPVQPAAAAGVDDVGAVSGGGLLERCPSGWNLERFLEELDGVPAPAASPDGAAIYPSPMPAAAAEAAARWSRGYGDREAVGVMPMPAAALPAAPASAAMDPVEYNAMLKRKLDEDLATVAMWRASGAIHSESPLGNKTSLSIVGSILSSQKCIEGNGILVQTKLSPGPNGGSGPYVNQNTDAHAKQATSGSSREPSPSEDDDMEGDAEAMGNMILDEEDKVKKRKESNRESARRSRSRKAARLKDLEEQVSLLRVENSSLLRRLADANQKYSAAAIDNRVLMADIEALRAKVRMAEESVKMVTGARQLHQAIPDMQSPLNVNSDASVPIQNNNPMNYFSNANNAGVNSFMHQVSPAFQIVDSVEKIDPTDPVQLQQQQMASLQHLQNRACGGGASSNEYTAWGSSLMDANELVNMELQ
The assay is described as follows: protein-binding microarray (RPBM); PBS, 2% BSA, 51.3 ng/ul salmon testes DNA, 50 uM zinc acetate, 200 nM TF, 25 C, 1 h; high values mean tight binding. The following applies: protein: recombinant; tags: N-terminal polyhistidine and DsRed monomer fusion (pET32a); chain copies: 2; label: CyDye5-dUTP incorporated in the synthesized complementary strand; 3' TTTTT single-stranded linker to array surface; dsDNA, one strand shown. A digest of the protocol: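 In PBS with 2% BSA, salmon testes DNA and 50 µM zinc acetate, 200 nM protein was incubated on a custom Agilent array at 25 °C for 1 h and then washed off. The array had been made double-stranded by primer extension with Cy5-dUTP and blocked with 2% BSA. The proteins were transcription factors fused N-terminally to polyhistidine and DsRed, expressed in E. coli BL21-CodonPlus and purified on Ni–NTA. The binding signal is per-feature fluorescence intensity (arbitrary units) from an Axon 4000B scanner.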
In the case of “TGAGACCAAGTCCAACGCATACACTCCAACCACTCCTCTCCGGAGTCACCTAGTGCAG”, the binding signal is 3190 fluorescence intensity (a.u.).

On to “CACTTTGGTAATAAAAGCTGGACCAATCTGCAATTTACTCCGGAGTCACCTAGTGCAG”, for which the binding signal was 15000 fluorescence intensity (a.u.).

Consider “GGCCGCGTGCGTGTGTCCAAACCTTCTCCACGCATTTCCTCGGAGTCACCTAGTGCAG”, for which the binding signal was 4220 fluorescence intensity (a.u.).

As for “ATGGGGAGCGCAACGGGGAGAGCGAGGAGGCCGCCGTCCTCGGAGTCACCTAGTGCAG”, the binding signal is 3470 fluorescence intensity (a.u.).

“TAGCTCGTACTCCTACATCGTAGCCACCGCGCCTCCCATGCGGAGTCACCTAGTGCAG”: the binding signal is 3640 fluorescence intensity (a.u.).

For “AATCCTGACGATAGGCGAATTATCCTATCTGCGTGGAATCCGGAGTCACCTAGTGCAG”, the binding signal was 3400 fluorescence intensity (a.u.).

As to “AATTATTACAAACCACGACAATCAGCCAGCTTCTCCACGGCGGAGTCACCTAGTGCAG”, the binding signal was 3970 fluorescence intensity (a.u.).

As to “CCAGCCATGTAATACCATGTCAGCTAAAACCACTGTCCAACGGAGTCACCTAGTGCAG”, the binding signal is 3160 fluorescence intensity (a.u.).

As to “AAGATGGACGGTTAAATATTGGACACGGATATCAGGGTTTCGGAGTCACCTAGTGCAG”, the binding signal was 27700 fluorescence intensity (a.u.).

In the case of “GAACACGGACACAGCAACACTGTGAACACACACGCACACCCGGAGTCACCTAGTGCAG”, the binding signal is 3140 fluorescence intensity (a.u.).

In the case of “ATTACTAATTACTGTATGTTACTTGACTAAACAACCTATGCGGAGTCACCTAGTGCAG”, the binding signal was 3340 fluorescence intensity (a.u.).

As for “TAGCTAGGCAGGGCTGCTGCTGCTGCCATCCCATTACGTGCGGAGTCACCTAGTGCAG”, the binding signal is 13600 fluorescence intensity (a.u.).

With “GTAGGAACTTGACATGTAGGTGGTAGGCTGGGGCTGAATACGGAGTCACCTAGTGCAG”, the binding signal was 3540 fluorescence intensity (a.u.).

Regarding “GGCGATGACATGTTTATTTTGTCCCATTTTGACACATGCACGGAGTCACCTAGTGCAG”, the binding signal is 4310 fluorescence intensity (a.u.).

With “CTCTCATCATCATCATCATCCTCCTCCTCCCTATCCCCTTCGGAGTCACCTAGTGCAG”, the binding signal was 3760 fluorescence intensity (a.u.).

For “GGTCGGTTTTAGCTGCTGCTGCTGCGCCACAATGAGGTGGCGGAGTCACCTAGTGCAG”, the binding signal is 5200 fluorescence intensity (a.u.).

Take “CATCGAGCTCATCCTATTGACTAGTCATAATGGGTTGTAACGGAGTCACCTAGTGCAG”: the binding signal is 13900 fluorescence intensity (a.u.).

In the case of “GTAGCCAGCCCAGGCCCGGCACGGCACGTCAGCCTGTGGGCGGAGTCACCTAGTGCAG”, the binding signal was 8400 fluorescence intensity (a.u.).

On to “CGTACGGATATGCCCACGTGGCGAAGTCCCACGACGCCACCGGAGTCACCTAGTGCAG”, for which the binding signal is 9930 fluorescence intensity (a.u.).

For the sequence “AAGGCAATTCGAACTGGCGCCTGCATCGCCGACGTGGCGCCGGAGTCACCTAGTGCAG”, the binding signal was 15100 fluorescence intensity (a.u.).

As for “ACCTTTTCTGCGCACTACTACTAGTAGTAGTATTTCGTCCCGGAGTCACCTAGTGCAG”, the binding signal was 3230 fluorescence intensity (a.u.).

With “AGCCGAGCCCCAGTCACGTCACGTCACCGCATCGCATGGGCGGAGTCACCTAGTGCAG”, the binding signal is 4920 fluorescence intensity (a.u.).

In the case of “TGTTTGGATAATGGAAAATGTGGAGTGGAATTGGGATTGACGGAGTCACCTAGTGCAG”, the binding signal is 27600 fluorescence intensity (a.u.).

Take “GTCATTGGGTTGGGAATGGCCTAATTGGCTGACGCCACAACGGAGTCACCTAGTGCAG”: the binding signal is 5280 fluorescence intensity (a.u.).

With “TTATTTACTGAGTTCGGTTGCTATTGCACTGGGTAGGAGTCGGAGTCACCTAGTGCAG”, the binding signal is 3630 fluorescence intensity (a.u.).

Consider “CATCTGCACGCATGAGTGAGCACACACGCAACACGATCGTCGGAGTCACCTAGTGCAG”, for which the binding signal is 3670 fluorescence intensity (a.u.).

In the case of “CATGGAAGAGATAGAGCGAGAACTGCAAAGGAAAGACAAACGGAGTCACCTAGTGCAG”, the binding signal is 31000 fluorescence intensity (a.u.).

For the sequence “GCACGGCCTGCCGCGGCCCGTGGAAGGTGACGTCGCCGCCCGGAGTCACCTAGTGCAG”, the binding signal was 3430 fluorescence intensity (a.u.).

For the sequence “CATGCAATGTAGTTTCAGAGATCAGAGTCGAGACTGTCAACGGAGTCACCTAGTGCAG”, the binding signal was 3390 fluorescence intensity (a.u.).

As for “AATTCTGTCCTGCTACTTTAATTTCGTTGAGGAATTCGGCCGGAGTCACCTAGTGCAG”, the binding signal is 3180 fluorescence intensity (a.u.).

Consider “CGCGCCACGGCGCACACGTGGCGCCGGCCGGAGCGCGCGCCGGAGTCACCTAGTGCAG”, for which the binding signal is 6100 fluorescence intensity (a.u.).

For “CCACAAGTAGATCGACGGAGACATTCTACTTGGCATGCATCGGAGTCACCTAGTGCAG”, the binding signal was 3340 fluorescence intensity (a.u.).

As for “TCGATCCATCTGTGACAACTCTGTACCGAGTGACTGTGTGCGGAGTCACCTAGTGCAG”, the binding signal is 5080 fluorescence intensity (a.u.).

Consider “AGCCAGCCCAAAAGCCACGCCGTCCACTCCATCTCCGCCTCGGAGTCACCTAGTGCAG”, for which the binding signal is 48000 fluorescence intensity (a.u.).

With “CTCTTCTCTCCTCCACGCAAGCCATTCGCCTATGTGGATTCGGAGTCACCTAGTGCAG”, the binding signal is 5240 fluorescence intensity (a.u.).

Take “GATTAATAGCAACCAAAACTCCTAAAGTACTAGCACGTGGCGGAGTCACCTAGTGCAG”: the binding signal is 5720 fluorescence intensity (a.u.).

As for “AGCTCCAATACATCACGCTGCGTTTGCTCCATATCCCATTCGGAGTCACCTAGTGCAG”, the binding signal was 3760 fluorescence intensity (a.u.).

Consider “GATATTTGTGAGTCGCCGCGTCGGACGGACCACGTGGTTGCGGAGTCACCTAGTGCAG”, for which the binding signal was 6590 fluorescence intensity (a.u.).

On to “CACAGCCGTCCATACCAGCATCCAACGGCCACGATCCTCCCGGAGTCACCTAGTGCAG”, for which the binding signal is 26000 fluorescence intensity (a.u.).

For the sequence “GGCGTCGCTCGCTCGCGCCTCGCCGCGTGGCTGGTTTGCACGGAGTCACCTAGTGCAG”, the binding signal is 5360 fluorescence intensity (a.u.).

On to “GGCCCAATACCACATGTGACATCTCAGCCCACTAGGCCCACGGAGTCACCTAGTGCAG”, for which the binding signal was 3670 fluorescence intensity (a.u.).

For the sequence “CGGCTCGAGCTCGTCCTCTCCCTCCGGAGTCAGCGGCGGCCGGAGTCACCTAGTGCAG”, the binding signal was 3390 fluorescence intensity (a.u.).
